Measurements: PubChem BioAssay AID1794845 (National Center for Advancing Translational Sciences (NCATS), 2023)
Screen size: about 6,900 compounds; fewer than 10 were called active. The call rests on the fitted dose curve; in most records, active means well fitted curve in the direction sought with a large enough effect; inconclusive means small, poorly fitted or top-dose-only effect, or another doubt; inactive means no such curve, though single readings can be large or run the other way. The list shows a part of the results.

By UniProt entry, the sequences of proteins in these tests, tags left out. Where a name states a change or a piece, a line headed by the entry shows the natural chain unless it says otherwise.
UniProt C7C422: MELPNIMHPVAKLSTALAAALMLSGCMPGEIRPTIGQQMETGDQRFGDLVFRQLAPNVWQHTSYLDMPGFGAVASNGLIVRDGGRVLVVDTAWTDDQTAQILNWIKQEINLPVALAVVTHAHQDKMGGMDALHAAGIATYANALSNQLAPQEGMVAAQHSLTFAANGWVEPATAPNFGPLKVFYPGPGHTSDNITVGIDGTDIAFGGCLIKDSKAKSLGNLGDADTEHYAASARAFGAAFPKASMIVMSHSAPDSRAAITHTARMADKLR

These compounds were tested against Metallo-beta-lactamase type 2 (Klebsiella pneumoniae) (UniProt C7C422) (assay: qHTS to identify inhibitors of the New Delhi Metallo-beta-lactamase (NDM): primary screen against the NCATS Gemini Collection). Details: NDM-1 enzyme, meropenem hydrolysis, absorbance 300 nm; at 38.4 µM (top of the series) unless noted.
How it was run: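 NDM-1 at 2 nM final in 50 mM HEPES pH 7.0, 1 uM ZnSO4, 0.01% Tween20, preincubated >30 min with compound. Meropenem 50 uM final added; absorbance at 300 nm after 30 min.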
Further: % of control where 0% means no effect.

Activity % (negative = inhibition), inactive:
O=C1Nc2ccccc2CC12CCCN2Cc1ccccc1 (centres undefined) 11.6% [at 57.5 µM], OC(COc1ccccc1CNCC1CCOCC1)CN1CCSCC1 (centres undefined) -4.61%, COCCN1CC(c2n[nH]c(C3CCOCC3)n2)CCC1=O (centres undefined) 50%, Cc1ccc(C(=O)N2CC[C@@](C)(O)[C@@H](Cc3ccccc3)C2)cc1C -3.8%, Cn1cnc(S(=O)(=O)N2C[C@@H](Oc3ccccc3)C[C@H]2C(=O)N2CCOCC2)c1 -1.42%, O=C(Cc1ccc(F)cc1)NC1CCN(c2cc(-c3ccccc3)[nH]n2)CC1 1.4%, COc1cccc(-c2ccc(C(=O)NCCNC(=O)c3ccccc3OC)cc2)c1 14.2%, Cc1cc2c(c(=O)n(-c3ccc(F)cc3)c(=O)n2CC(=O)Nc2cccc(C#N)c2)n1C 7.14%, CN1c2cccnc2CN(C(=O)Nc2cccc(C(F)(F)F)c2)CC[C@H]1CO -5.29% [at 57.5 µM], Cc1nc(NCCC2CCOC2)c2c(C)nn(C)c2n1 (centres undefined) 6.1%, O=c1[nH]nc2n1CCC(NS(=O)(=O)c1ccc(Cl)s1)CC2 (centres undefined) -1.87%, c1coc(-c2noc(CN3CCCC3c3nc(-c4ccncc4)no3)n2)c1 (centres undefined) 2.62%, COc1ccc(CN2CCCC3(C2)C(=NC2CCCCC2)NC(=O)N3c2cccnc2)cc1 (centres undefined) 6.19%, CCCNC(=O)CCc1ccnc(N2CCCC2)c1 20.6%, Cc1cn(CC(=O)N[C@@H]2COCC[C@@H]2OCC2CC2)c(=O)[nH]c1=O 2.08%, COc1cc2c(cc1NS(C)(=O)=O)C(c1cccc3c1OCO3)CC(=O)N2 (centres undefined) 0.737%, CCn1cc(C(=O)N2CCc3cc(S(=O)(=O)NCC4CCCO4)ccc3C2)cn1 (centres undefined) 1.64%, CC(C)CCN1CC(C(=O)NCCc2ccncc2)C2(CCOCC2)C1 (centres undefined) 1.09%, COc1ccc(Cn2c(C3CCN(C(=O)C4(c5ccccc5)CC4)CC3)n[nH]c2=O)cc1 -0.839%, CNC(=O)c1cc(C2CC2)nc2onc(C3CCN([S+](=O)([O-])c4ccccc4)C3)c12 (centres undefined) 31.7%, Cc1ccc(F)c(C(=O)NC(C)c2cnn(-c3ccccc3)c2C)c1Cl (centres undefined) -3.38%, CCC[C@@H]1CN(C(=O)CNS(=O)(=O)c2cccs2)C[C@H]1NC(C)=O 0.587%, F[C@@H]1CN(C2CCC2)C[C@@H]1OCc1nc2ncccc2[nH]1 11.3% [at 77.1 µM], COc1cccc(-c2cccc(C(=O)N3C[C@H](CO)C[C@H](CN(C)C)C3)c2)c1 1.81%
